Test results reported in PubChem BioAssay AID2685 (National Center for Advancing Translational Sciences (NCATS), 2010).
About 2,100 (0.66%) of roughly 320,000 compounds were called active. The inconclusive results got no clear call from the source; some entries with a clear call stand among them for comparison. Calls come from the whole dose curve; as a rule, active = well fitted inhibition curve with a large enough effect in the signal ratio, with a control signal flat (not every such curve was filed as active); inconclusive = small, poorly fitted or top-dose-only effect, or effect the other way, or a change in a side signal; inactive = flat fitted curve, though single readings scatter; the % refers to the signal ratio. Potencies of inconclusive entries are doubtful fits and often do not repeat.
% is set by controls: 0 for no effect and ±100 for the full control effect; potency is the fitted concentration of half-maximal effect.

Assay: qHTS Assay for Lipid Storage Modulators in Drosophila S3 Cells
Details: BODIPY lipid droplet fluorescence, 18-24 h, cells fed with added oleic acid; lipid storage change, negative = inhibition: at 46.1 µM (top of the series) unless noted
In short: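 Laser-scanning cytometry quantifies lipid droplet accumulation (500–530 nm total intensity; droplet/cell object ratio) in oleic acid-fed (400 uM added) Drosophila S3 cells treated with a concentration series. 20 uM Triacsin C defined 100% inhibition.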
For `COc1cc2ccccc2cc1C(=O)Nc1ccccc1Cl`, the lipid storage change, negative = inhibition was inconclusive: -0.914%.
With `COc1ccc(CCN2C(=O)CC(NNC(=O)c3ccccc3Br)C2=O)cc1OC` (centres undefined) the Potency was inconclusive: 6510 nM [activator, single point].
With `N#Cc1cc2c(nc1SCc1nc3ccccc3[nH]1)CCC2` the lipid storage change, negative = inhibition was inconclusive: 13.6%.
For `CCc1ccc(S(=O)(=O)N/N=C\c2cn(CC(N)=O)c3ccccc23)cc1`, the Potency was inconclusive: 29100 nM [activator, single point].
For `CC1CCC(C(=O)NC(C(=O)NCCN2CCC(C)CC2)C(C)C)CC1` (centres undefined), the lipid storage change, negative = inhibition was inconclusive: -83.8%.
For `COc1ccc(CNC(=O)CCNS(=O)(=O)c2cc(Br)cnc2N)cc1`, the lipid storage change, negative = inhibition was inconclusive: 20.2%.
For `O=C(O)c1ccc(-c2nc(-c3ccccc3)cs2)cc1`, the lipid storage change, negative = inhibition was inconclusive: -64.7%.
In the case of `COc1ccc(CNC(=O)c2cccnc2)cc1`, the lipid storage change, negative = inhibition is reported as inconclusive: 144%.
For `CCOC(=O)c1c(NC(=O)CSC(=S)N(C)C)sc(C)c1C`, the Potency was inconclusive: 2910 nM [activator, partial curve].
In the case of `CCOC(=O)c1cc(CC)sc1NC(=O)CC1SC(N)=NC1=O` (centres undefined), the lipid storage change, negative = inhibition is reported as inconclusive: 37.9%.
In the case of `CC(C)OC(=O)Nc1ccc2c(c1)N(C(=O)CCN1CCN(CCO)CC1)c1ccccc1CC2`, the lipid storage change, negative = inhibition is reported as inconclusive: 24.3%.
In the case of `CC1Sc2ccc(S(=O)(=O)CCC(=O)NC3CCCCC3C)cc2NC1=O` (centres undefined), the lipid storage change, negative = inhibition is reported as “inactive”.
For `COC(=O)c1ccc(COc2ccc(/C=N/NC(=O)C(=O)Nc3ccc(OC)cc3)cc2OC)o1`, the lipid storage change, negative = inhibition was inconclusive: 55.1%.
With `COC(=O)c1c(C)nn(-c2ccccc2)c1-n1cccc1` the lipid storage change, negative = inhibition was inconclusive: 3.03%.
In the case of `Cc1ccc(CN2CCN(c3ncccn3)CC2)o1`, the lipid storage change, negative = inhibition is reported as inconclusive: -0.478%.
With `Cc1cc(/C=N/n2cnnc2)c(C)n1-c1ccc2c(c1)OCO2` the lipid storage change, negative = inhibition was inconclusive: 25.8%.
For `O=c1[nH]cc(S(=O)(=O)Nc2ccc3c(c2)OCO3)c(=O)[nH]1`, the lipid storage change, negative = inhibition was “inconclusive”.
With `CC(C)OC(=O)CCCCCN1C(=O)CSC1=S` the Potency was inconclusive: 1300 nM [falling, full curve].
In the case of `CCCNS(=O)(=O)c1ccc(OCC(=O)NCC2CCCO2)cc1` (centres undefined), the lipid storage change, negative = inhibition is reported as inconclusive: -36.1%.
In the case of `Cc1ccc(NC(=O)C(C)OC(=O)/C=C/c2ccccc2)cc1` (centres undefined), the lipid storage change, negative = inhibition is reported as inconclusive: 26.2%.
For `CC(C)Cn1c(CCC(N)=O)nnc1SC(C)C(=O)Nc1ccc2c(c1)OCO2` (centres undefined), the Potency was inconclusive: 4110 nM [activator, single point].
With `CCOc1cc(CNc2ccc(S(N)(=O)=O)cc2)cc(Cl)c1OC` the lipid storage change, negative = inhibition was inconclusive: 15.2%.
For `COc1ccc(C(=O)NC(=S)N2CC(C)OC(C)C2)cc1` (centres undefined), the Potency was inconclusive: 29100 nM [activator, single point].
For `Cc1ccc(C(C)n2cc(C(=O)NCc3ccccn3)nn2)cc1` (centres undefined), the Potency was inconclusive: 116 nM [activator, partial curve, poor fit].
With `COc1cc(OC)c(-c2nn3c(C4CCCCC4)nnc3s2)cc1OC` the Potency was inconclusive: 231 nM [rising, partial curve, poor fit].
With `CC(=O)c1c(C)[nH]c(C(=O)Nc2cccc3ccccc23)c1C` the lipid storage change, negative = inhibition was inconclusive: -5.43%.
For `O=C(NC1CCN(C(=S)Nc2ccc(F)cc2)CC1)C1CCCCC1`, the Potency was inconclusive: 2910 nM [activator, full curve].
For `CN(C)CCNc1cc(-c2ccncc2)nc2ccccc12`, the lipid storage change, negative = inhibition was inconclusive: 42.5%.
For `CCCCCCCCCCSc1n[nH]c(N)n1`, the lipid storage change, negative = inhibition was inconclusive: 10.3%.
In the case of `CC(=O)Nc1ccc(NC(=O)C2CCN(C(=O)c3cccs3)CC2)cc1`, the Potency is reported as inconclusive: 29100 nM [activator, single point].
In the case of `O=C(O)CSCC(=O)N1CCN(S(=O)(=O)c2cc(Cl)cc(Cl)c2)CC1`, the Potency is reported as inconclusive: 6.5 nM [falling, full curve, poor fit].
With `CCOC(=O)c1c(NC(=O)c2c(Br)cnn2C)c(C#N)nn1-c1ccccc1` the Potency was inconclusive: 2060 nM [falling, partial curve, poor fit].
In the case of `Cc1ccc(SCC(=O)N(Cc2nc(-c3ccccc3)no2)C(C)C)cc1`, the lipid storage change, negative = inhibition is reported as inconclusive: -44.9%.
With `Cc1ccc(C(=O)OCCOc2cccc(Cl)c2)cc1S(=O)(=O)N1CCOCC1` the lipid storage change, negative = inhibition was “inconclusive”.
With `Cc1ccccc1/C=N/n1c(-c2ccccn2)n[nH]c1=S` the lipid storage change, negative = inhibition was inconclusive: -0.148%.
In the case of `CCCCN(Cc1ccccc1)C(=O)C1CCC(=O)N(CCc2ccccn2)C1` (centres undefined), the lipid storage change, negative = inhibition is reported as inconclusive: 23.9%.
For `CCOC(=O)c1c(C)[nH]c(C(=O)NCCN2CCOCC2)c1C`, the lipid storage change, negative = inhibition was inconclusive: 16.5%.
In the case of `Cc1ccc(NC(=O)COC(=O)c2cc(=O)c3cc(F)ccc3o2)cc1`, the lipid storage change, negative = inhibition is reported as “inconclusive”.
With `CCCCCCCCCC(=O)NNC(=O)c1c(O)c2ccccc2n(CCC)c1=O` the lipid storage change, negative = inhibition was inconclusive: 4.58%.
With `Cc1ccccc1C(=O)NC(=S)Nc1cccc(NC(=O)C(C)C)c1` the lipid storage change, negative = inhibition was inconclusive: -26.9% [cytotoxic].
In the case of `C/C(=N/NC(=O)c1ccc(Br)o1)c1ccc(C)o1`, the lipid storage change, negative = inhibition is reported as inconclusive: -1.36%.
In the case of `COc1ccc2cc(CCOC3CCCCO3)ncc2c1` (centres undefined), the Potency is reported as inconclusive: 461 nM [activator, single point].
In the case of `CC(Oc1ccccc1)C(=O)N/N=C/c1ccccn1` (centres undefined), the lipid storage change, negative = inhibition is reported as inconclusive: 10.5%.
In the case of `CC(=O)N1c2ccc(S(=O)(=O)NCCC(=O)NCCc3ccc(Cl)cc3)cc2CC1C` (centres undefined), the lipid storage change, negative = inhibition is reported as inconclusive: 59.9%.
In the case of `CCCOc1ccc(N2C(=O)CC(SCC(N)C(=O)OCC)C2=O)cc1` (centres undefined), the lipid storage change, negative = inhibition is reported as inconclusive: -1.12%.
For `Cc1ccc(NC(=O)N/C=C/c2ccccc2)cc1`, the lipid storage change, negative = inhibition was inconclusive: -26.2%.
With `CC(C)CC(=O)Nc1cc([N+](=O)[O-])ccc1Cl` the lipid storage change, negative = inhibition was inconclusive: 3.85%.
With `Nc1c(N(Cc2ccco2)C(=O)COc2ccccc2)c(=O)[nH]c(=O)n1Cc1ccccc1` the lipid storage change, negative = inhibition was inconclusive: 38.5%.
With `C/C(=N\N1C(C)CCCC1C)c1ccccc1O` (centres undefined) the lipid storage change, negative = inhibition was inconclusive: -18.6%.
For `NS(=O)(=O)c1ccc(CCNC(=O)c2cncc(Br)c2)cc1`, the lipid storage change, negative = inhibition was inconclusive: -17.1%.
For `COc1ccc(CCN2CC(C(=O)NCc3nc4ccccc4n3C)CCC2=O)cc1` (centres undefined), the Potency was inconclusive: 29100 nM [falling, single point].
For `COc1ccccc1CNC(=O)C(CCSC)NS(=O)(=O)c1ccc2c(c1)oc(=O)n2C` (centres undefined), the lipid storage change, negative = inhibition was inconclusive: -12.5%.
With `O=C(N/C(=C\c1ccc(Br)cc1)c1nc2ccccc2[nH]1)c1ccco1` the Potency was inconclusive: 32600 nM [falling, single point].
In the case of `COc1ccc(CCNC(=O)CN(c2cc(C)cc(C)c2)S(=O)(=O)c2c(C)noc2C)cc1OC`, the lipid storage change, negative = inhibition is reported as inconclusive: -5.67%.
In the case of `Cc1ccc(S(=O)(=O)N(c2ccc(Br)cc2)C2C=CS(=O)(=O)C2)cc1` (centres undefined), the lipid storage change, negative = inhibition is reported as inconclusive: -86.9%.
In the case of `O=C(CSCCO)Nc1ccc(C23CC4CC(CC(C4)C2)C3)cc1`, the lipid storage change, negative = inhibition is reported as inconclusive: -20.5%.
In the case of `O=[N+]([O-])c1ccc(CN2CCC(Cc3ccccc3)CC2)cc1`, the lipid storage change, negative = inhibition is reported as inconclusive: -2.31%.
With `NC(=O)C(NC(=O)OCc1ccccc1)c1ccccc1` (centres undefined) the lipid storage change, negative = inhibition was inconclusive: 14.8%.
For `Cc1cccc(C(=O)Oc2c(Br)cc(Br)cc2/C=N/NC(=O)c2ccncc2)c1`, the lipid storage change, negative = inhibition was inconclusive: -24.2%.
In the case of `Cc1cnc(NC(=O)c2ccc3c(c2)OCCO3)s1`, the lipid storage change, negative = inhibition is reported as inconclusive: 5.45%.
With `CCOC(=O)c1c(NC(=O)Cn2cnc3sc(C)c(-c4ccccc4)c3c2=O)sc(C)c1C` the Potency was inconclusive: 9200 nM [activator, partial curve].
With `O=C1CSC(c2ccccn2)N1c1ccc2ccccc2c1` (centres undefined) the lipid storage change, negative = inhibition was inconclusive: 35.9%.
For `O=c1c2c(nc3c(-c4ccc(Cl)cc4)c[nH]n13)CCC2`, the lipid storage change, negative = inhibition was inconclusive: -25.8%.
For `O=C(c1ccco1)N1CCC(c2nc3c(nnn3Cc3c(Cl)cccc3Cl)c(=O)[nH]2)CC1`, the lipid storage change, negative = inhibition was inconclusive: -100%.
For `CCN(CC)C(=O)Cn1c(=O)n(CC(=O)N2CCCCC2)c(=O)c2sccc21`, the lipid storage change, negative = inhibition was inconclusive: -2.23%.
For `N=C1C(c2nc3ccccc3[nH]2)=C(O)CN1c1ccc(F)cc1`, the lipid storage change, negative = inhibition was inconclusive: -14.5%.
For `CC(=O)c1ccc(NC(=S)NNC(=O)NC2CCCCC2)cc1`, the lipid storage change, negative = inhibition was inconclusive: 35.3%.
In the case of `O=C(CSc1nnnn1-c1ccc(F)cc1)Nc1ccccc1F`, the Potency is reported as inconclusive: 2310 nM [activator, full curve, poor fit].
For `C=CCNC(=S)Nc1ccc(Cl)cc1F`, the lipid storage change, negative = inhibition was inconclusive: 71.4%.
In the case of `Cc1cc(C(=O)Nc2ccccc2C)c2ccccc2n1`, the Potency is reported as inconclusive: 5.2 nM [activator, full curve, poor fit].
In the case of `COc1cc(/C=N/NC(=O)COc2cccc(F)c2)ccc1OS(=O)(=O)c1ccc(C)cc1`, the lipid storage change, negative = inhibition is reported as inconclusive: 77%.
In the case of `COc1ccc(C(=O)NN=C2CCCC2)c(OC)c1`, the lipid storage change, negative = inhibition is reported as inconclusive: -142%.
With `CN(C(=O)Cn1cc([N+](=O)[O-])ccc1=O)C1CCCCC1` the lipid storage change, negative = inhibition was inconclusive: 5.29%.
With `Nc1nc(N2CCOCC2)nc(N(c2ccccc2)c2ccccc2)n1` the Potency was inconclusive: 1160 nM [falling, single point].
With `CC(C)CN(C(=O)CSc1ncnc2sccc12)C1CCS(=O)(=O)C1` (centres undefined) the Potency was inconclusive: 16400 nM [activator, single point].
For `CCCc1nnc(NC(=O)C2CCN(C(=O)C3CC(=O)N(c4ccc(C)cc4)C3)CC2)s1` (centres undefined), the Potency was inconclusive: 32600 nM [activator, single point].
In the case of `Cc1cc2c(cc(C(=O)OC(C(=O)NC3CCCCC3)C(C)C)n2C)o1` (centres undefined), the Potency is reported as active: 1460 nM.
For `COc1cc2[nH]c(=S)nc(NCCc3ccc(C)cc3)c2cc1OC`, the lipid storage change, negative = inhibition was inconclusive: 18.5%.
With `COCCCN(Cc1cccs1)S(=O)(=O)c1csc(C(N)=O)c1` the Potency was inconclusive: 18400 nM [activator, partial curve].
